PubChem BioAssay AID652243 | Drosophila RNAi Screening Center, 2013
Test: 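Knock-downs that decrease or increase androgen receptor reporter signal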 (primary screen). Cell system: Drosophila S2R+ cells. Reagent: long dsRNA against Drosophila genes. Time to read-out: 72 h (48 h, then 24 h hormone). Treatment: synthetic androgen R1881 at 10 nM for 24 h. Read-out: 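Firefly light from an androgen-responsive reporter and Renilla control light per well, raw and unnormalised, for each of two replicates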. Direction: firefly reporter light: higher = more light from androgen-responsive reporter; Renilla control light: higher = more constitutive control signal (cell number, transfection). Hit rule: 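Hit when the log firefly-to-Renilla ratio dropped or increased by a fixed fold versus the mean of GFP or LacZ controls across duplicate plates; lowering cut given as 1.5 and as 3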. Meaning of the calls: active = hit: reporter lowered or raised; inactive = no hit.
In all, the deposit lists about 24,000 reagents; below is an unselected part of those with a known target gene and a result. In the full data, 246 (1%) are marked active. 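Plates not normalised; calls are printed but the firefly/Renilla ratio behind them is not deposited; fold cut for lowering reported inconsistently.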 Raw values are not corrected between plates. Names joined by + are all predicted targets of the reagent. Not stated in the record: the amount of reagent.

no.	Target gene	DRSC id	firefly reporter light, replicate 1	firefly reporter light, replicate 2	Renilla control light, replicate 1	Renilla control light, replicate 2	outcome
1	or	DRSC04329	2.21e5	2.13e5	1.20e6	1.03e6	inactive
2	or	DRSC29241	4.61e5	4.49e5	1.38e6	1.33e6	inactive
3	Kap-alpha3	DRSC16976	1.90e5	1.98e5	3.85e6	3.49e6	inactive
4	Ankle2	DRSC20105	24332	42579	7.39e5	8.20e5	inactive
5	Ankle2	DRSC20106	4.23e5	4.47e5	3.77e6	3.61e6	inactive
6	Idi	DRSC15918	75445	1.48e5	7.95e5	7.55e5	inactive
7	Cyp6a15Psi	DRSC07377	4.45e5	5.44e5	2.04e6	2.01e6	inactive
8	Cyp6a15Psi	DRSC28316	2.40e5	5.52e5	1.21e6	1.87e6	inactive
9	CG9636	DRSC16529	87322	1.13e5	5.85e5	7.66e5	inactive
10	Sgt	DRSC02812	4.41e5	8.85e5	7.15e5	1.81e6	inactive
11	Sgt	DRSC25360	6.89e5	8.49e5	8.71e5	9.47e5	inactive
12	Tmtc2	DRSC24987	6.46e5	5.72e5	9.48e5	1.15e6	inactive
13	CG12384	DRSC06145	6.16e5	7.60e5	1.73e6	2.05e6	inactive
14	CG12384	DRSC28713	2.78e5	3.16e5	1.29e6	1.55e6	inactive
15	Orc2	DRSC16776	46996	27410	4.10e5	2.09e5	inactive
16	CG6607	DRSC16073	1.56e5	1.57e5	2.15e6	2.29e6	inactive
17	Cyp4e1	DRSC07370	2.41e5	3.26e5	1.67e6	1.40e6	inactive
18	Cyp4e1	DRSC27154	2.91e5	2.89e5	5.77e5	5.60e5	inactive
19	CG4679	DRSC06880	2.21e5	3.13e5	1.47e6	1.47e6	inactive
20	CG4679	DRSC28357	3.30e5	5.59e5	7.97e5	1.00e6	inactive
21	CG30271	DRSC04170	2.93e5	3.18e5	1.79e6	1.93e6	inactive
22	CG30271	DRSC30044	1.08e6	9.44e5	9.94e5	1.12e6	inactive
23	bwa	DRSC01749	1.15e5	1.85e5	3.06e5	5.36e5	inactive
24	bwa	DRSC02310	1.89e5	2.06e5	1.68e6	1.69e6	inactive
25	140up	DRSC12634	1.25e5	50642	4.89e5	5.89e5	inactive
26	140up	DRSC28711	6.16e5	6.65e5	1.35e6	1.36e6	inactive
27	Prosbeta5	DRSC07517	2.95e5	1.45e5	1.71e6	1.18e6	inactive
28	Prosbeta5	DRSC28939	6.35e5	6.34e5	1.14e6	1.46e6	inactive
29	CCHa1-R	DRSC06456	69584	1.05e5	1.19e6	1.19e6	inactive
30	CCHa1-R	DRSC06715	1.22e5	1.27e5	2.45e6	2.45e6	inactive
31	CG9948	DRSC11104	7.01e5	6.11e5	1.23e6	1.44e6	inactive
32	Syx16	DRSC20507	53364	28918	4.55e5	6.11e5	inactive
33	Syx16	DRSC27163	2.23e5	2.28e5	4.37e5	4.79e5	inactive
34	CG34376	DRSC14696	2.61e5	2.24e5	3.12e6	3.63e6	inactive
35	CG34376	DRSC14701	2.19e5	2.58e5	2.74e6	3.13e6	inactive
36	CG34376	DRSC24983	8.05e5	1.16e6	9.01e5	8.82e5	inactive
37	CG34376	DRSC25207	5.08e5	1.02e6	7.90e5	7.20e5	inactive
38	Grip71	DRSC02042	1.70e5	1.09e5	1.28e6	1.08e6	inactive
39	Or88a	DRSC16770	83756	1.52e5	1.51e6	2.17e6	inactive
40	CG32354	DRSC10763	1.01e6	8.63e5	1.37e6	1.70e6	inactive
41	CG32354	DRSC10775	2.45e5	1.47e5	2.12e6	1.96e6	inactive
42	CG32354	DRSC21919	1.06e6	8.76e5	1.84e6	1.19e6	inactive
43	Naa40	DRSC16265	1.63e5	2.00e5	2.01e6	2.69e6	inactive
44	CG17404	DRSC15234	1.39e6	1.36e6	2.81e6	2.72e6	inactive
45	RIOK2	DRSC14413	1.86e5	2.07e5	2.53e6	2.07e6	inactive
46	RIOK2	DRSC36955					inactive
47	RIOK2	DRSC36956					inactive
48	CG31917 + Tfb5	DRSC02362	2.32e5	2.91e5	1.55e6	1.27e6	inactive
49	CG31917 + Tfb5	DRSC02363	90018	61101	8.36e5	5.60e5	inactive
50	CG3663	DRSC04402	6.04e5	7.26e5	1.11e6	1.15e6	inactive
51	CG3663	DRSC27007	5.56e5	5.69e5	8.83e5	5.79e5	inactive
52	CG4686	DRSC15622	4.16e5	3.35e5	3.49e6	4.11e6	inactive
53	Cyp6d2	DRSC04606	3.32e5	3.07e5	2.30e6	2.71e6	inactive
54	Cyp6d2	DRSC25647	7.65e5	3.80e5	5.69e5	4.89e5	inactive
55	CG7044	DRSC16180	3.05e5	2.76e5	4.06e6	3.98e6	inactive
56	CG30094	DRSC22268	7.53e5	8.41e5	1.19e6	1.13e6	inactive
57	CG30094	DRSC27064	3.38e5	2.79e5	9.21e5	4.75e5	inactive
58	CG13123	DRSC02219	1.26e5	1.08e5	1.05e6	9.67e5	inactive
